# In the supplement of paper PMC7666118:
# Amino acid sequences for entries named in this document (tags omitted). A change or cut given only in a name is not applied to a line headed by its entry.
# UniProt P61086: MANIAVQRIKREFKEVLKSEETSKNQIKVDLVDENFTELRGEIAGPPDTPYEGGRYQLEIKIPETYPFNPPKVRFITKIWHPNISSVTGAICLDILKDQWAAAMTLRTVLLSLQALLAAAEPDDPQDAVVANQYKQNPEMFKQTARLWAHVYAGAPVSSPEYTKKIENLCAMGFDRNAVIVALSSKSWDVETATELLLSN
# UniProt P49459, whole entry: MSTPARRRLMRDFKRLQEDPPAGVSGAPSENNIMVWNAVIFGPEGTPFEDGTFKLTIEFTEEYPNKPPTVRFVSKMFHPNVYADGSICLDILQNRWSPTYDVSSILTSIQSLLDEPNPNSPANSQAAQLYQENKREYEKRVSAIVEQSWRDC
# UniProt Q9NSU2: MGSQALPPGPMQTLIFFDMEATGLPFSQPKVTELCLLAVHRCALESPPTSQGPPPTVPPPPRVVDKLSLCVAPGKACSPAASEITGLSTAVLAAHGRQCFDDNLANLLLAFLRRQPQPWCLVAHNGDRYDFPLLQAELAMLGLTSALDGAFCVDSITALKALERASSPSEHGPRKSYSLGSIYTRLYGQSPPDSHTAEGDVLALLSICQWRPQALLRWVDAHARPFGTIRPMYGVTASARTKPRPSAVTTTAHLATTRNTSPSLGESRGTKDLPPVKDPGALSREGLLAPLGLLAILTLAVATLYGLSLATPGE
# UniProt Q96GJ1: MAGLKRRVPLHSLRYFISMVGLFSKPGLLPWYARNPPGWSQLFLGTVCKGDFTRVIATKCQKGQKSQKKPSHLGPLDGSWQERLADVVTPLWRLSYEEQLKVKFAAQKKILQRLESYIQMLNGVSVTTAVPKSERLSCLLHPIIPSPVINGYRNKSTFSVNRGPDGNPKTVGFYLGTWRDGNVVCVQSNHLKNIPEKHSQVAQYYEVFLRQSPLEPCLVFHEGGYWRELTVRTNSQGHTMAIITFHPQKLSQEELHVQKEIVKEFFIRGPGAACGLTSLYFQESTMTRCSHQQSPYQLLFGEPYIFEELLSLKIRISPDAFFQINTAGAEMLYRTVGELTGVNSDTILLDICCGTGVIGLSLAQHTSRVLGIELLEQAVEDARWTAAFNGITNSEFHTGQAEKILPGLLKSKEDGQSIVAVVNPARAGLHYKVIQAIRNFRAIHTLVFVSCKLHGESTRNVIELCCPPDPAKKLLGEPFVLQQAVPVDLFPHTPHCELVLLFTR
# UniProt Q9UJT0: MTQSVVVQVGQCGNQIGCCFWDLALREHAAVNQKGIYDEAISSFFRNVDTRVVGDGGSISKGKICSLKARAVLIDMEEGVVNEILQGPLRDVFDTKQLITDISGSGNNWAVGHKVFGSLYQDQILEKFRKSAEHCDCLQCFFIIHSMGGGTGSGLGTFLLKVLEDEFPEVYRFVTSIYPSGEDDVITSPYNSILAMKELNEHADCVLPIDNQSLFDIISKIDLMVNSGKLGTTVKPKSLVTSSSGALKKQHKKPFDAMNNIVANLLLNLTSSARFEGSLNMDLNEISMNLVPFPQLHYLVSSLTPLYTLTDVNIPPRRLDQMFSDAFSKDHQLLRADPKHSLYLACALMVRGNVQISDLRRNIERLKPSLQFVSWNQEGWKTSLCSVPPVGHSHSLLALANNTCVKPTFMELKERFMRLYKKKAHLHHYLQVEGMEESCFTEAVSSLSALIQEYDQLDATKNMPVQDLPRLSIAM
# UniProt P62253: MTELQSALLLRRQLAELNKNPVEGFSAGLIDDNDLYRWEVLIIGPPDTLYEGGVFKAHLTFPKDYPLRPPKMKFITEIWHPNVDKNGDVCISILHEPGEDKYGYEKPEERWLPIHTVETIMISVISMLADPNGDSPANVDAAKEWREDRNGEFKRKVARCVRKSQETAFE
# UniProt O14933: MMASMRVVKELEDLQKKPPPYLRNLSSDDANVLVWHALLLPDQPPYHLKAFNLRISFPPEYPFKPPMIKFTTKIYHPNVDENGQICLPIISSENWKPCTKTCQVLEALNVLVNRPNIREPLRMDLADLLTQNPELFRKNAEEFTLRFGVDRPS
# UniProt Q53HC9: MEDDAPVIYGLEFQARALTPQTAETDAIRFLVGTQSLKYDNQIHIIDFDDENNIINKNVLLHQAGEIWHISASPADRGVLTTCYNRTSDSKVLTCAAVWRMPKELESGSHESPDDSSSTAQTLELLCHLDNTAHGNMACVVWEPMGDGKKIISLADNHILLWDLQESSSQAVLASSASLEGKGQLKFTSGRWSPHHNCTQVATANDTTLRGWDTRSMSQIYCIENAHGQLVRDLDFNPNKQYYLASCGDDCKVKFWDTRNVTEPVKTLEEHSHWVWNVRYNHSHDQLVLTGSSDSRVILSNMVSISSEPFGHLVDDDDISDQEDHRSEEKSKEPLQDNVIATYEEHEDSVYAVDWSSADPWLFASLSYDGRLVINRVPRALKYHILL
# UniProt Q9UPU5: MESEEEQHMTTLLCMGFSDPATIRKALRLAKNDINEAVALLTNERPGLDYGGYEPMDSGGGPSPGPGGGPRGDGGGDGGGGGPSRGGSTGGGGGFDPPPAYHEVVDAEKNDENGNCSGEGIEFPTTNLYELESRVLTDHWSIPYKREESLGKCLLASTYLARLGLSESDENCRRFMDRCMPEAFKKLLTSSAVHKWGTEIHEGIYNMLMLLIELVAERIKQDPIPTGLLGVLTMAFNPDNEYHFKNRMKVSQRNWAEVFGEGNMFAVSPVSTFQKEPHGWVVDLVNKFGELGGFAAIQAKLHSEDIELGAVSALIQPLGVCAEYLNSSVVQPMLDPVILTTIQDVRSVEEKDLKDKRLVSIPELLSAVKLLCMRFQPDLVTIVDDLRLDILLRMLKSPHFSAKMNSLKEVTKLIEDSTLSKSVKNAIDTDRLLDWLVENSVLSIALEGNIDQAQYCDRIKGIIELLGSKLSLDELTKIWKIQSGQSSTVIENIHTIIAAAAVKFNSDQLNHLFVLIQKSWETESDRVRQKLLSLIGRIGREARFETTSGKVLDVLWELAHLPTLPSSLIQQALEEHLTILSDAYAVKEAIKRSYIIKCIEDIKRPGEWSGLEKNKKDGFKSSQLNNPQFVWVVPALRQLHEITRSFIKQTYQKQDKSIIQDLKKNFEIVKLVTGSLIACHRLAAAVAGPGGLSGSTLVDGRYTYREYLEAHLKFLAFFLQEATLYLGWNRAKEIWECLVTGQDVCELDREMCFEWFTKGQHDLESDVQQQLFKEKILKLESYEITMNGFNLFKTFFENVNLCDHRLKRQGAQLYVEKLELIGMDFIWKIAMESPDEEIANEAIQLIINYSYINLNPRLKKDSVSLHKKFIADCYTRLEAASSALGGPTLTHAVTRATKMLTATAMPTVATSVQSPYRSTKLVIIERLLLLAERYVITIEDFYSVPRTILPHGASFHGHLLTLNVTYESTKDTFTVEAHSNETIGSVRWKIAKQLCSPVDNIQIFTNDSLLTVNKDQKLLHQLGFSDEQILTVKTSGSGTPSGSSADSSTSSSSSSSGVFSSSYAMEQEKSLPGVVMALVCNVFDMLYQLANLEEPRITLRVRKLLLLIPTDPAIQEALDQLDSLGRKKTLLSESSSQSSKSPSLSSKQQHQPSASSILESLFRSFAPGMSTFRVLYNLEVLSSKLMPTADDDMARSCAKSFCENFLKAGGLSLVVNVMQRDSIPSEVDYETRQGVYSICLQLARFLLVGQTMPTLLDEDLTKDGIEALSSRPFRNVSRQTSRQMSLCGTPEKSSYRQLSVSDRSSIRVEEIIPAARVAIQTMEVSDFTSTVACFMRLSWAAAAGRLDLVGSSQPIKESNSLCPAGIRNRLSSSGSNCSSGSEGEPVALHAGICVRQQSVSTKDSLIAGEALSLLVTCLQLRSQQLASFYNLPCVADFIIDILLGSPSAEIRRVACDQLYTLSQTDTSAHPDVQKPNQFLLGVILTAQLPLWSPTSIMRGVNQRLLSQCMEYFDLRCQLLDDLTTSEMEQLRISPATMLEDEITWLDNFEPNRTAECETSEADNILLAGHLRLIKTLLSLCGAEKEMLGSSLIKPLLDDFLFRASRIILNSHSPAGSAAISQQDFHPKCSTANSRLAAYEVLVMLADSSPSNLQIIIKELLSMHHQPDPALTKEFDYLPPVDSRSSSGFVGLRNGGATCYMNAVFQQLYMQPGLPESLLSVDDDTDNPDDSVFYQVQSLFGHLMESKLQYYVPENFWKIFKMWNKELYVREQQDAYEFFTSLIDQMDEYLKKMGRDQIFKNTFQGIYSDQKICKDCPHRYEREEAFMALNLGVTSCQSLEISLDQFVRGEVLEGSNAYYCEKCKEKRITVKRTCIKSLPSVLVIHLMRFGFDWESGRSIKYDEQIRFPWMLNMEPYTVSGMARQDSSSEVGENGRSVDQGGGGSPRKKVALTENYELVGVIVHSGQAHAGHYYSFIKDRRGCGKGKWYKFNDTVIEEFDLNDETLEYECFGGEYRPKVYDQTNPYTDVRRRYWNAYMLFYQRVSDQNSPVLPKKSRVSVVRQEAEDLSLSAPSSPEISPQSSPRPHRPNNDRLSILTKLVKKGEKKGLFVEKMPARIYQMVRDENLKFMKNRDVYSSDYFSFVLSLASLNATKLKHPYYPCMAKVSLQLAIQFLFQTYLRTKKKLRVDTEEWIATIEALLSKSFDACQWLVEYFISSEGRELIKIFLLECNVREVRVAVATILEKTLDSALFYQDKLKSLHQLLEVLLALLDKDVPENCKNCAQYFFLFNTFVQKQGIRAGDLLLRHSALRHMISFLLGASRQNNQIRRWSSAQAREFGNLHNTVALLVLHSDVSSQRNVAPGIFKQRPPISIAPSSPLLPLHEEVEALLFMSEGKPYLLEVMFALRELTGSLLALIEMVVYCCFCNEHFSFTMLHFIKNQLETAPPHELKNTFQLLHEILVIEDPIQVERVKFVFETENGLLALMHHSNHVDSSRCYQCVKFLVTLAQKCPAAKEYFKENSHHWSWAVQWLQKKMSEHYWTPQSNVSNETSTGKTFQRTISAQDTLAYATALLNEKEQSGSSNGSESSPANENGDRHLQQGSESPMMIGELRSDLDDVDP
# UniProt Q15631: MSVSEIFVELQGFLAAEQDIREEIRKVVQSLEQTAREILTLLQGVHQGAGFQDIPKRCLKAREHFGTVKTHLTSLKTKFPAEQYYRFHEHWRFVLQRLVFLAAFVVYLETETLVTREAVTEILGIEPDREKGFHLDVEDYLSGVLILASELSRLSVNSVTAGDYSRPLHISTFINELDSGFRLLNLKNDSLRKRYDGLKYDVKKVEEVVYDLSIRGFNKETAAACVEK
# UniProt A6NIH7: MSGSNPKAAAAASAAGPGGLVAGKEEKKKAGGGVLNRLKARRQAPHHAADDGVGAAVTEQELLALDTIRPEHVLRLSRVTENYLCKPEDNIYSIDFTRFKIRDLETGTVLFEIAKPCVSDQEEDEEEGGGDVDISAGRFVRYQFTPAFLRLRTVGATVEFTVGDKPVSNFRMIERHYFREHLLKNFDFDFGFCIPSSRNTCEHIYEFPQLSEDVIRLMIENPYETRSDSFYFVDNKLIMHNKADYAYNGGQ
# UniProt P83876: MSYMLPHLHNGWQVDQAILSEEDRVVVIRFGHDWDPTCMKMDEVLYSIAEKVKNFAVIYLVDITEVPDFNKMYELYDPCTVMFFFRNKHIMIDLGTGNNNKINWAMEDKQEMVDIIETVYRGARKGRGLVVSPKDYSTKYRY
# Some of the results follow.
# Compound: COc1ccc(Cn2ccc3ccc(C(=O)NO)cc32)cc1
# Assay: dose-dependent thermal stabilisation call (2D-TPP, DLPTP, 10% FDR) (binary (1 = stabilised)); higher = stabilised by the compound
# Details: system: HL-60 intact cells; concentration range 0.04-10 µM
row,Target,dose-dependent thermal stabilisation call
1,UBE2K (UniProt P61086),inactive: 0
2,TRDMT1 (UniProt O14717),inactive: 0
3,TXNDC11 (UniProt Q6PKC3),inactive: 0
4,TXNDC4 (UniProt Q9BS26),inactive: 0
5,TTC35 (UniProt Q15006),inactive: 0
6,TRIM56 (UniProt Q9BRZ2),inactive: 0
7,UBR3 (UniProt Q6ZT12),inactive: 0
8,USP20 (UniProt Q9Y2K6),inactive: 0
9,UBE2A (UniProt P49459),inactive: 0
10,TREX1 (UniProt Q9NSU2),inactive: 0
11,TUBGCP6 (UniProt Q96RT7),inactive: 0
12,TRMT2B (UniProt Q96GJ1),inactive: 0
13,TUBE1 (UniProt Q9UJT0),inactive: 0
14,TRMT2A (UniProt Q8IZ69),inactive: 0
15,UBE2G1 (UniProt P62253),inactive: 0
16,TSPO,inactive: 0
17,TRIM4 (UniProt Q9C037),inactive: 0
18,UBE2L6 (UniProt O14933),inactive: 0
19,TTC13 (UniProt Q8NBP0),inactive: 0

row,Target,dose-dependent thermal stabilisation call
1,TSSC1 (UniProt Q53HC9),inactive: 0
2,TUBG1 (UniProt P23258),inactive: 0
3,TSSC4 (UniProt Q9Y5U2),inactive: 0
4,UGCGL2 (UniProt Q9NYU1),inactive: 0
5,U2AF1 (UniProt Q01081),inactive: 0
6,UBE4A (UniProt Q14139),inactive: 0
7,USP24 (UniProt Q9UPU5),inactive: 0
8,TSC22D4 (UniProt Q9Y3Q8),inactive: 0
9,TSN (UniProt Q15631),inactive: 0
10,TRIO (UniProt O75962),inactive: 0
11,UNC119B (UniProt A6NIH7),inactive: 0
12,UNC84A (UniProt O94901),inactive: 0
13,TXNL4A (UniProt P83876),inactive: 0
14,UBA6,inactive: 0
15,TPT1 (UniProt P13693),inactive: 0
16,UBE2L3 (UniProt P68036),inactive: 0
17,URB2 (UniProt Q14146),inactive: 0
18,TRPC4AP (UniProt Q8TEL6),inactive: 0
19,TRMT1 (UniProt Q9NXH9),active: 1

# Copied from the list.
# In dose-dependent thermal stabilisation call, TXNL4A (UniProt P83876) is listed with inactive: 0
# In dose-dependent thermal stabilisation call, U2AF1 (UniProt Q01081) is listed with inactive: 0
